No constants are given. Whether binding was seen depends on the method and setting. In cells and extracts the contact can be indirect. Some results given as binding are weak or reduced against the parent protein; the word gives no strength.
Biological target: NF-κB p65 (human (endogenous in AC16)) (UniProt Q04206)
Experiment: co-IP; AC16 cells stimulated with TNF-α (20 ng/mL) for 24 h with or without calcitriol (100 nM); lysates immunoprecipitated with anti-p65 antibodies, blotted with anti-VDR and anti-p65 antibodies

Protein sequences, listed by entry. Tags and fused reporters are not part of them.
UniProt Q04206: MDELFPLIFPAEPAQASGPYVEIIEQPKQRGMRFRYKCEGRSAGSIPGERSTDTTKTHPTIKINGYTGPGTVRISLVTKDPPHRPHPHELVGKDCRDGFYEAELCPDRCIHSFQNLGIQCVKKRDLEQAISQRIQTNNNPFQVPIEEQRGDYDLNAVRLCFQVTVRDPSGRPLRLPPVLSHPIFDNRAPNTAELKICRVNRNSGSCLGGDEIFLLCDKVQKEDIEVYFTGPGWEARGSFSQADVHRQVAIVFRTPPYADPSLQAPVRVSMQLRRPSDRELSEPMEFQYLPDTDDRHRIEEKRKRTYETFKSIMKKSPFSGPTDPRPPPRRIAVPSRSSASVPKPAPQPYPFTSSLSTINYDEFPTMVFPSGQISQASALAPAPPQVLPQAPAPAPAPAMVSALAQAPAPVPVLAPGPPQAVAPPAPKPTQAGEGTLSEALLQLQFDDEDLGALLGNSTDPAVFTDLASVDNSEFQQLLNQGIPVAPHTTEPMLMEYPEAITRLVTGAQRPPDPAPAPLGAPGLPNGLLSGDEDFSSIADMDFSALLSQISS

B1: Vitamin D receptor (protein, UniProt P11473 1-427)
chain: MEAMAASTSLPDPGDFDRNVPRICGVCGDRATGFHFNAMTCEGCKGFFRRSMKRKALFTCPFNGDCRITKDNRRHCQACRLKRCVDIGMMKEFILTDEEVQRKREMILKRKEEEALKDSLRPKLSEEQQRIIAILLDAHHKTYDPTYSDFCQFRPPVRVNDGGGSHPSRPNSRHTPSFSGDSSSSCSDHCITSSDMMDSSSFSNLDLSEEDSDDPSVTLELSQLSMLPHLADLVSYSIQKVIGFAKMIPGFRDLTSEDQIVLLKSSAIEVIMLRSNESFTMDDMSWTCGNQDYKYRVSDVTKAGHSLELIEPLIKFQVGLKKLNLHEEEHVLLMAICIVSPDRPGVQDAALIEAIQDRLSNTLQTYIRCRHPPPGSHLLYAKMIQKLADLRSLNEEHSKQYRCLSFQPECSMKLTPLVLEVFGNEIS
binding: binds

— PMC9139780
